In this assay the target is TuMV P3N-PIPO fused to the N-terminal half of citrine (Turnip mosaic virus (TuMV)). The assay is described as follows: split reporter; BiFC with halves of citrine (YN, YC) in N. benthamiana leaves, agroinfiltration at A600 0.05, confocal microscopy at about 38 h post agroinfiltration.

These are yes or no findings as the source states them, for the method shown. In cells and extracts the contact can be indirect. Binding can be weak; no strength is given. Where a sequence is shown, tags or fusion partners need not be part of it.

B1: Arabidopsis PCaP1 with a glycine to alanine substitution at position 2, fused to the C-terminal half of citrine (protein, UniProt Q96262 1-225)
chain: MAYWNSKVVPKFKKLFEKNSAKKAAAAEATKTFDESKETINKEIEEKKTELQPKVVETYEATSAEVKALVRDPKVAGLKKNSAAVQKYLEELVKIEFPGSKAVSEASSSFGAGYVAGPVTFIFEKVSVFLPEEVKTKEIPVEEVKAEEPAKTEEPAKTEGTSGEKEEIVEETKKGETPETAVVEEKKPEVEEKKEEATPAPAVVETPVKEPETTTTAPVAEPPKP
As to B1, the binding result was “binds”.
